Results deposited as PubChem BioAssay AID504744 (Drosophila RNAi Screening Center, 2011).

Aim: 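Find genes whose loss alters insulin-driven dAkt phosphorylation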 (primary screen)
Cells: Drosophila Kc167 cells
Reagents: long dsRNA against Drosophila genes, 250 ng dsRNA per well of a 384-well plate
Timing: 3 days of knock-down, then overnight serum-free starvation before stimulation
Challenge: bovine insulin at 387 nM for 10 minutes after 12 h without serum
Detection: 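In-cell antibody fluorescence for phospho-dAkt in each well over DNA-dye signal, with log2 residuals expressed as z-scores adjusted for cell count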
Hit rule: 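Under insulin, a gene counts as a hit if the average z-score of two replicates lies above 2.5 or below -2.5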
The deposit covers about 23,000 reagents; this is a random part of those with a known target gene and a result. Of all reagents, 98 (0.43%) got an active call. 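Only hit calls are given; the phospho-dAkt signals, z-scores and hit direction were not deposited.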 Names joined by + are all predicted targets of the reagent. No sequences are given here.

With knock-down of Amy-d + Amy-p [DRSC21242], the screen gave inactive.
Knock-down of CG43078 [DRSC10292] resulted in: inactive.
For CG43078 [DRSC10608], the values are inactive.
CG43078 [DRSC21541] scored inactive.
CG43078 [DRSC22327] gave inactive.
After knock-down of CG13170 [DRSC06298] the results were inactive.
After knock-down of Ide [DRSC11867], the screen gave inactive.
Depletion of GstE8 [DRSC06678] gave: inactive.
Knock-down of X11Lbeta [DRSC18156] gave: inactive.
For X11Lbeta [DRSC18158], the values are inactive.
With knock-down of CG31233 [DRSC15888], the screen gave inactive.
Depletion of CG7054 [DRSC16185] resulted in: inactive.
Against MFS18 [DRSC00452] the deposit lists inactive.
With knock-down of tll [DRSC17085], the record shows inactive.
Silencing of CG30289 [DRSC03870] resulted in: inactive.
Depletion of Nepl6 [DRSC03242] resulted in: inactive.
For CG42583 [DRSC22937], the values are inactive.
After knock-down of Tgi [DRSC09793], the screen gave inactive.
Tgi [DRSC09794] showed inactive.
Knock-down of Acp29AB [DRSC01857] came out at: inactive.
Depletion of CG13197 [DRSC06322] gave: inactive.
For CG43102 [DRSC14797], the values are inactive.
CG43102 [DRSC16239] gave inactive.
After knock-down of CG3168 [DRSC18287] the results were inactive.
Depletion of CG15142 [DRSC02443] came out at: inactive.
Silencing of CG10171 [DRSC09711] resulted in: inactive.
CG31680 [DRSC21878] gave inactive.
Knock-down of Cp7Fa [DRSC18032] gave: inactive.
For Cp7Fa [DRSC18033], the entry reads inactive.
After knock-down of rols [DRSC09873], the screen gave inactive.
Against rols [DRSC10254], the entry reads inactive.
Silencing of rols [DRSC10536] resulted in: inactive.
After knock-down of Picot [DRSC07508], the record shows inactive.
Against Snoo [DRSC01008] the deposit lists inactive.
Knock-down of Snoo [DRSC03004] resulted in: inactive.
Snoo [DRSC03035] gave inactive.
After knock-down of CG17600 [DRSC20638], the screen gave inactive.
After knock-down of CG17600 [DRSC20640], the screen gave inactive.
CG17600 [DRSC22753] gave inactive.

In a second layout: results already given.
target gene	DRSC id	Call
Nepl6	DRSC03242	inactive
CG42583	DRSC22937	inactive
Tgi	DRSC09793	inactive
Tgi	DRSC09794	inactive
Acp29AB	DRSC01857	inactive
CG13197	DRSC06322	inactive
